We go through two sequences from article PMC9283627, “Auxotrophic and prototrophic conditional genetic networks reveal the rewiring of transcription factors in Escherichia coli”.

Construct, isoform or probe ends are uncertain for at least one entry. The comparison behind a weaker result is the experiment's own reference, which may not be listed here. At least one verdict was read from the data and is not stated in words by the source. Where a protein sequence is shown, tags need not be part of it.

The target in the data set is T1, YneJ (UniProt P77309).
T1 sequence (looked up, limits assumed): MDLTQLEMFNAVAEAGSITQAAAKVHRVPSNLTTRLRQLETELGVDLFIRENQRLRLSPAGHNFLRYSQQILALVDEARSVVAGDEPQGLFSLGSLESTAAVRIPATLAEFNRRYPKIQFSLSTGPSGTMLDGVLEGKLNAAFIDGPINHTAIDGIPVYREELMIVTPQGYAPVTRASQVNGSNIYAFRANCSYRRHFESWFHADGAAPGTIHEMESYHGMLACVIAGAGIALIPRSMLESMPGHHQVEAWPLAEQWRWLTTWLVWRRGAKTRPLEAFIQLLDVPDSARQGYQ
The data set is described as follows: fluorescence polarization. To be noted: PBS (pH 6.5), 0.5 mM EDTA, 7 mM MgCl2, 100 mM KCl, 5 mM phosphate, herring sperm DNA, 50 C, 10 nM labeled dsDNA, recombinant protein. On the technique in general: In fluorescence polarisation assays a small probe gives low polarisation when free and higher when bound to something large.

For “GGGAGTATTCGCGGTAGTTATGATTGGG (double strand) [leuO promoter 28 bp]”, for the setting “negative control, label: 6-FAM on S39 (printed at the 5' end)”, the binding result is on record as “binds more weakly”.
As for “GGGTTCTCGATTCGTGAAGGG (double strand) [sad-yneJ consensus motif 21 bp]”, the binding result (no metabolite, no AcrR) is reported as “binds more weakly”.
